The target of the experiment is GFP-tagged histone H1.2 (mouse HIST1H1C cDNA in pEGFP-N1) (mouse) (UniProt P15864). The experiment in a line: affinity purification with mass spectrometry; GFP-tagged H1.2 expressed in HEK293T cells; lysate on anti-GFP beads; eluate separated by 12% SDS-PAGE, trypsin digest, LC-MS/MS; 451 proteins identified.

By UniProt entry, the sequences of proteins in these tests, tags left out.
UniProt P15864: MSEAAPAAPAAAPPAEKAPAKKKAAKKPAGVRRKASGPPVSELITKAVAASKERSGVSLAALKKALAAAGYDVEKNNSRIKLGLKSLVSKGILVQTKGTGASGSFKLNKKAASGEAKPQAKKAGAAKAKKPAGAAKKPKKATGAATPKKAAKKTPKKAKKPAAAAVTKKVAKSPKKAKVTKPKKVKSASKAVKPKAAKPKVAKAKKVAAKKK
UniProt P09874: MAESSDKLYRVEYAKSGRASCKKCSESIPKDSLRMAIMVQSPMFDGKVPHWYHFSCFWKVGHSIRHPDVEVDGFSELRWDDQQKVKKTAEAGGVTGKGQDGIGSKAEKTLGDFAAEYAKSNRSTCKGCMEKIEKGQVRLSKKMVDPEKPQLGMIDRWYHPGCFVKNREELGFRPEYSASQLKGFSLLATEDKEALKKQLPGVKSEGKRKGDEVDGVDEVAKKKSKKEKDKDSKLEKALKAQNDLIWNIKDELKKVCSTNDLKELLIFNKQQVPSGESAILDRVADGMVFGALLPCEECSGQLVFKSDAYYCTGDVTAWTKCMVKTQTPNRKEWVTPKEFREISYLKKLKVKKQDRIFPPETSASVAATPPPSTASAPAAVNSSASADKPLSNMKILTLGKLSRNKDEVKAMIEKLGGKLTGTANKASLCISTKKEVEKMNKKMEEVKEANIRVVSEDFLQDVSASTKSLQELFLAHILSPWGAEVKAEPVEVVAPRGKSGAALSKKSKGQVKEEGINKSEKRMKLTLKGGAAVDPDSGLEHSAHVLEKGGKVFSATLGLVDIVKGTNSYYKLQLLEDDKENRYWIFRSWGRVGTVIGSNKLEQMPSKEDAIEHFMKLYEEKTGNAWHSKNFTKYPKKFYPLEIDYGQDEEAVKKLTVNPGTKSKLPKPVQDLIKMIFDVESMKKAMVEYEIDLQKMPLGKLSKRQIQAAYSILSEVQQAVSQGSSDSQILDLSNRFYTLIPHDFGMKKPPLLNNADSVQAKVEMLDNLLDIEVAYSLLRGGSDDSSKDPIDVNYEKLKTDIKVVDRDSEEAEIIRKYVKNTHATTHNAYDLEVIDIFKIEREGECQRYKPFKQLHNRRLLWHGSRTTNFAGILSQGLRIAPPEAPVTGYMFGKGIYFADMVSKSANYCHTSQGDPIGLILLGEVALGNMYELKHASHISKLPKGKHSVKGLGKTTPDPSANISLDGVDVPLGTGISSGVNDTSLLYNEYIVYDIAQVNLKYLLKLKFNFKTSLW

Consider one substance from paper PMC11376556.

These are yes or no findings as the source states them, for the method shown. In cells and extracts the contact can be indirect. Here binding means that the protein was enriched with, or labelled near, the bait; the list need not be complete.

In the case of “PARP1, endogenous in HEK293T cells (from UniProt P09874 1-1014) (enzyme)”, the binding entry was “binds”.
